Reference: the supplement of paper PMC12823440, “Inhibitors supercharge kinase turnover through native proteolytic circuits” (Nature, 2025)
Where a name gives a salt, the structure may show the parent alone. The list shows a part of the results. The calls rarely recur for the same compound in another form.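 Kinases were expressed as nanoluciferase fusions in K562 cells and luminescence was read every 4 h between 2 and 18 h as percent of control, DMSO set to 100% and a positive control to 0%. A time point counts as decreased when the signal drops significantly (2 sigma). The hit call is the authors' own, does not follow from the count of time points alone, and its rule is not shown.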

The chains behind the UniProt entries cited, without tags or fusion partners. Where a name states a change or a piece, a line headed by the entry shows the natural chain unless it says otherwise.
UniProt P43403: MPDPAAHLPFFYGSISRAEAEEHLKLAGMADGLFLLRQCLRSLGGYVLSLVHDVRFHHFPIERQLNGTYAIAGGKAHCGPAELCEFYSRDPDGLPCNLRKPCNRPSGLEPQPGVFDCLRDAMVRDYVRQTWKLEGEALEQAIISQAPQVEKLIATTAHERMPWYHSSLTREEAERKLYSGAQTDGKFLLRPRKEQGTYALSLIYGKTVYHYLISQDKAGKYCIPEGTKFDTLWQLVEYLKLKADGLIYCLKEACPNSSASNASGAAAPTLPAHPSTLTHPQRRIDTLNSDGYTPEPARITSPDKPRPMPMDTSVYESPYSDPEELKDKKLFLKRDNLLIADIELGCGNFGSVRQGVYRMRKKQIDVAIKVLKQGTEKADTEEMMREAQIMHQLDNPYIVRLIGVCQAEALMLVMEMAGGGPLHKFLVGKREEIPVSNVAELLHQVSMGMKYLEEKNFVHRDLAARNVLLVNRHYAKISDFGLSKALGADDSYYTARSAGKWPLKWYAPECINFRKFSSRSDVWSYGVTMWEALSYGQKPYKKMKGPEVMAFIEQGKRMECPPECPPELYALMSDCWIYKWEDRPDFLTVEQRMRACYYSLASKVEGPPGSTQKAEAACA

target: ZAP70 (UniProt P43403); assay: number of time points (of 5) at which kinase-Nluc abundance scored as decreased, DMSO-normalised (count); higher = more persistent destabilization; details: K562; 2-18 h

Row | SMILES | number of time points
1 | Cc1ccc(Nc2cc(N[C@@H]3CCCC[C@@H]3N)nnc2C(N)=O)nc1C (2 µM) | 0
2 | NC(=O)c1sc2c([N+](=O)[O-])cc(C(F)(F)F)cc2[n+]1[O-] [Cyclapolin 9] (10 µM) | 0
3 | O=C(C#Cc1ccccc1)c1cccc([N+](=O)[O-])c1 (10 µM) | 0
4 | NC(=O)c1ccccc1Nc1ccnc(Nc2cccc(O)c2)n1 (10 µM) | 0
5 | Cc1cncc2cccc(S(=O)(=O)N3CCCNC[C@@H]3C)c12 [H-1152 (dihydrochloride)] (10 µM) | 0
6 | C=CC(=O)Nc1cccc(Oc2nc(Nc3ccc(N4CCN(C)CC4)cc3OC)ncc2Cl)c1 (10 µM) | 0
7 | Cc1n[nH]c2ncc(C(=O)N3CCC[C@H]3c3ccc(Cl)cc3)cc12 (10 µM) | 0
8 | N#Cc1cnc(Nc2cc(NC[C@H]3CNCCO3)c(C(F)(F)F)cn2)cn1 (10 µM) | 0
9 | Cc1ncc(-c2cc(F)c(O)c(F)c2)cc1-c1cc(F)c(O)c(F)c1 (10 µM) | 0
10 | N#Cc1cc(N2CCC(C(=O)N3N=CC[C@H]3c3cc(F)cc(F)c3)CC2)ncn1 (10 µM) | 0
11 | C[C@H](Nc1cc2c(-c3ccc4c(c3)OCO4)noc2cn1)c1ccccc1 (10 µM) | 0
12 | CCOC(=O)c1c(N2CCc3ccc(OC)cc3C2)oc(C=C2C=Nc3ncccc32)c1O (10 µM) | 0
13 | CC(C)n1cnc2c(Nc3cccc(Cl)c3)nc(N[C@H]3CCCC[C@@H]3N)nc21 (2.5 µM) | 0
14 | Nc1ccc(Sc2nc3ccccc3s2)c(Cl)c1 [KRAS inhibitor-9] (10 µM) | 0
15 | COc1cc2c(cc1OC)[C@@H]1C(=O)c3ccc4c(c3O[C@@H]1CO2)C=CC(C)(C)O4 [Deguelin] (10 µM) | 0
16 | Cn1cc(-c2nc(N[C@@H]3CCCC[C@@H]3N)c(F)c3c2C(=O)NC3)cn1 [TAK-659 (hydrochloride)] (2 µM) | 0
17 | CCOC(=O)c1c(Nc2ccccc2Cl)oc(/C=C2\C=Nc3ncccc32)c1O (10 µM) | 0
18 | NC(=O)c1c(NC(=O)C2CC2)sc2c1CCCC2 (10 µM) | 0

Nos. 17–18, reprinted for reference:
Row | SMILES | number of time points
17 | CCOC(=O)c1c(Nc2ccccc2Cl)oc(/C=C2\C=Nc3ncccc32)c1O (10 µM) | 0
18 | NC(=O)c1c(NC(=O)C2CC2)sc2c1CCCC2 (10 µM) | 0

More records:

Row | SMILES | number of time points
19 | CN1CCC(Nc2nc(Nc3ccc(Oc4ccccc4)cc3)c3c(=O)[nH]cc(Br)c3n2)CC1 (2.5 µM) | 0
20 | N#CC(=C(/N)Sc1ccccc1N)/C(C#N)=C(\N)Sc1ccccc1N (10 µM) | 0
21 | CC(C)n1c(CO)nc2c(F)cc(-c3nc(Nc4ccc(CN5CCNCC5)cn4)ncc3F)cc21 (10 µM) | 0
22 | O=C(Nc1ccc(F)cc1F)C(NC(=S)Nc1cc(C(F)(F)F)cc(C(F)(F)F)c1)c1ccccc1 (racemic) (2.5 µM) | 0
23 | COCCNc1cc(NC(=O)N2CCCc3cc(CN4CCOCC4=O)c(C=O)nc32)ncc1C#N (10 µM) | 0
24 | CC/C(=C(\c1ccccc1)c1ccc(OCCNC)cc1)c1ccccc1 [N-Desmethyltamoxifen (hydrochloride)] (2.5 µM) | 0
25 | C[C@@H]1CN(Cc2ccc(F)cc2)[C@@H](C)CN1C(=O)c1cc2c(C(=O)C(=O)N(C)C)cn(C)c2cc1Cl [Talmapimod] (10 µM) | 0
26 | Nc1nccc(Oc2ccc3c(C(=O)Nc4cccc(C(F)(F)F)c4)cccc3c2)n1 (10 µM) | 0
27 | COc1c(Nc2ncc(Cl)c(N[C@H]3[C@@H](C(N)=O)[C@@H]4C=C[C@H]3C4)n2)ccc2c1CC[C@@H](N1CCOCC1)CC2 (10 µM) | 0
28 | CNCc1ccccc1Sc1cccc2ccccc12 [IFN alpha-IFNAR-IN-1 (hydrochloride)] (10 µM) | 0
29 | COc1cccc(-c2cc(=O)c3ccccc3o2)c1N (10 µM) | 0
30 | Nc1ccc(-c2nc3ccc(-c4nc5ccc(N)cc5[nH]4)cc3[nH]2)cc1 (10 µM) | 0
31 | Cc1ccc(C2CC(=O)NC(SCC(=O)Nc3nccs3)=C2C#N)cc1 (stereo not given) [Necrostatin-34] (10 µM) | 0
32 | CC(C)Cn1ncc2cc(Oc3ccc(F)cc3F)c(C(=O)NCCN(C)C)cc21 [p38α inhibitor 1] (10 µM) | 0
33 | O=C(NC[C@H](O)CO)c1ccncc1Nc1ccc(I)cc1F [Pimasertib] (10 µM) | 0
34 | CN1C(=O)N[C@@H](Cc2c[nH]c3c(Cl)cccc23)C1=O [Necrostatin 2 (S enantiomer)] (10 µM) | 0
35 | Cc1cc2c(F)c(Oc3ncnn4cc(OC[C@@H](C)OC(=O)[C@H](C)N)c(C)c34)ccc2[nH]1 [Brivanib (alaninate)] (10 µM) | 0
